{"source": "patent US8822168B2", "about": "“Assays for detecting small nuclear ribonucleoprotein particle assembly and survival of motor neurons activity” (The Trustees of the University of Pennsylvania, priority 2005, dated 2014)", "tested_on": "SMN complex", "assay": "high-throughput 384-well SMN complex activity / snRNP assembly assay", "format": "biochemical", "settings": "test compound added to labeled RNA, cell extract and ATP; identified inhibitors, FIG. 10", "note": "At least one structure is not confirmed: it was looked up by name or label, or the drawing left a doubt."}
{"smiles": "Cc1cc2c(C(C)C)c(O)c(O)c(C=O)c2c(O)c1-c1c(C)cc2c(C(C)C)c(O)c(O)c(C=O)c2c1O", "note": "[gossypol]", "values": [{"measurement": "formation of an RNA binding protein-RNA complex", "value": "inhibits the formation of an RNA binding protein-RNA complex"}]}
